This passage reports binding results from publication PMC4550699.

Sequences of proteins named here, by UniProt entry; tags and fusion partners are left off. A change or cut given only in a name is not applied to a line headed by its entry.
UniProt Q9M7Q7: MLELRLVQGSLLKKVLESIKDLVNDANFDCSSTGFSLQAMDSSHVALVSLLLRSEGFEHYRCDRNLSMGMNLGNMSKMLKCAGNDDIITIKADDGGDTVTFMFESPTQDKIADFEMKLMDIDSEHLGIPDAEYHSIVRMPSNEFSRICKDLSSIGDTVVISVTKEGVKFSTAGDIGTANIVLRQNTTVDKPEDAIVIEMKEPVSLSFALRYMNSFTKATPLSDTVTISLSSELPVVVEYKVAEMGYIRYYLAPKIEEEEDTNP
UniProt Q9ZW35: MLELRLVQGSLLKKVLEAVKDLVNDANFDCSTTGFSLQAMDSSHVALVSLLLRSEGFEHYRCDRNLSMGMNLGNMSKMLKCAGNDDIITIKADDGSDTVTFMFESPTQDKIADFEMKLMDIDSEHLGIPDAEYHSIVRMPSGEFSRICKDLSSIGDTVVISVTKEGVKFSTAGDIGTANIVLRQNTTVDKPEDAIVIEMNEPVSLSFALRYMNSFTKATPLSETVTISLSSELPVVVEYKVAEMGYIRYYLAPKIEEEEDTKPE

No constants are given. Whether binding was seen depends on the method and setting. For some assays here: Binding seen in cells or lysates may run through a third protein. Tags and fused reporters may be left off the sequences shown.

In test [1] the target is PCNA1_CtermGFP (Arabidopsis thaliana) (UniProt Q9M7Q7). Briefly: split reporter; BiFC (split GFP) in N. benthamiana leaf cells, transient co-expression with p19, confocal microscopy; CycD_NtermGFP with PCNA_CtermGFP (Figure 2), one of four combinations analysed.
The target of test [2] is PCNA2_CtermGFP (Arabidopsis thaliana) (UniProt Q9ZW35). Described as above.
Test [3] has as its target PCNA2_RFP (Arabidopsis thaliana) (UniProt Q9ZW35). Nature of the test: condition: FRET efficiency 0.08%; threshold 1.19%; FRET or BRET; FLIM-FRET in nuclei of transiently transformed N. benthamiana leaf cells; donor GFP fusion, acceptor RFP fusion; E = (1 - tauDA/tauD) x 100%; FRET efficiency of free GFP/RFP (1.19%) used as threshold. Background: Bioluminescence resonance energy transfer reports proximity on the nanometre scale.

Test [4] has as its target PCNA1_RFP (Arabidopsis thaliana) (UniProt Q9M7Q7). Nature of the test: condition: FRET efficiency 1.13%; threshold 1.19%; FRET or BRET; FLIM-FRET in nuclei of transiently transformed N. benthamiana leaf cells; donor GFP fusion, acceptor RFP fusion; E = (1 - tauDA/tauD) x 100%; FRET efficiency of free GFP/RFP (1.19%) used as threshold.
The target of test [5] is RFP_PCNA1 (Arabidopsis thaliana) (UniProt Q9M7Q7). Nature of the test: condition: FRET efficiency 0.42%; threshold 1.19%; FRET or BRET; FLIM-FRET in nuclei of transiently transformed N. benthamiana leaf cells; donor GFP fusion, acceptor RFP fusion; E = (1 - tauDA/tauD) x 100%; FRET efficiency of free GFP/RFP (1.19%) used as threshold.
Test [6] addresses RFP_PCNA2 (Arabidopsis thaliana) (UniProt Q9ZW35). Nature of the test: condition: FRET efficiency 0.84%; threshold 1.19%; FRET or BRET; FLIM-FRET in nuclei of transiently transformed N. benthamiana leaf cells; donor GFP fusion, acceptor RFP fusion; E = (1 - tauDA/tauD) x 100%; FRET efficiency of free GFP/RFP (1.19%) used as threshold.
The target in test [7] is PCNA1 (Proliferating Cell Nuclear Antigen 1), split-ubiquitin Y2H fusion (Arabidopsis thaliana) (UniProt Q9M7Q7). Briefly: two-hybrid; split-ubiquitin Y2H (MoBiTec transactivating starter kit), yeast NMY51, bait in pDHB1Gateway, prey in pPR3-NGateway; growth on SC-Leu-Trp-His with 10 mM 3-AT and X-gal filter assay; both orientations tested, the target of a row is the bait.

The target of test [8] is PCNA2 (Proliferating Cell Nuclear Antigen 2), split-ubiquitin Y2H fusion (Arabidopsis thaliana) (UniProt Q9ZW35). The description is as above.
The target in test [9] is RFP_PCNA1 (Arabidopsis thaliana) (UniProt Q9M7Q7). Nature of the test: condition: FRET efficiency 0.41%; threshold 1.19%; FRET or BRET; FLIM-FRET in nuclei of transiently transformed N. benthamiana leaf cells; donor GFP fusion, acceptor RFP fusion; E = (1 - tauDA/tauD) x 100%; FRET efficiency of free GFP/RFP (1.19%) used as threshold.
The target in test [10] is RFP_PCNA2 (Arabidopsis thaliana) (UniProt Q9ZW35). Described as above.
In test [11] the target is PCNA1_RFP (Arabidopsis thaliana) (UniProt Q9M7Q7). Nature of the test: condition: FRET efficiency 1.75%; threshold 1.19%; FRET or BRET; FLIM-FRET in nuclei of transiently transformed N. benthamiana leaf cells; donor GFP fusion, acceptor RFP fusion; E = (1 - tauDA/tauD) x 100%; FRET efficiency of free GFP/RFP (1.19%) used as threshold.
The target of test [12] is PCNA2_RFP (Arabidopsis thaliana) (UniProt Q9ZW35). Briefly: condition: FRET efficiency 0.87%; threshold 1.19%; FRET or BRET; FLIM-FRET in nuclei of transiently transformed N. benthamiana leaf cells; donor GFP fusion, acceptor RFP fusion; E = (1 - tauDA/tauD) x 100%; FRET efficiency of free GFP/RFP (1.19%) used as threshold.

B1: CycD1;1_NtermGFP (protein, UniProt P42751 1-339)
chain: MRSYRFSDYLHMSVSFSNDMDLFCGEDSGVFSGESTVDFSSSEVDSWPGDSIACFIEDERHFVPGHDYLSRFQTRSLDASAREDSVAWILKVQAYYNFQPLTAYLAVNYMDRFLYARRLPETSGWPMQLLAVACLSLAAKMEEILVPSLFDFQVAGVKYLFEAKTIKRMELLVLSVLDWRLRSVTPFDFISFFAYKIDPSGTFLGFFISHATEIILSNIKEASFLEYWPSSIAAAAILCVANELPSLSSVVNPHESPETWCDGLSKEKIVRCYRLMKAMAIENNRLNTPKVIAKLRVSVRASSTLTRPSDESSFSSSSPCKRRKLSGYSWVGDETSTSN
For the molecule B1, the binding result in [1] and in [2] was “no binding” in each case.

B2: CycD1;1_GFP (protein, UniProt P42751 1-339)
chain: MRSYRFSDYLHMSVSFSNDMDLFCGEDSGVFSGESTVDFSSSEVDSWPGDSIACFIEDERHFVPGHDYLSRFQTRSLDASAREDSVAWILKVQAYYNFQPLTAYLAVNYMDRFLYARRLPETSGWPMQLLAVACLSLAAKMEEILVPSLFDFQVAGVKYLFEAKTIKRMELLVLSVLDWRLRSVTPFDFISFFAYKIDPSGTFLGFFISHATEIILSNIKEASFLEYWPSSIAAAAILCVANELPSLSSVVNPHESPETWCDGLSKEKIVRCYRLMKAMAIENNRLNTPKVIAKLRVSVRASSTLTRPSDESSFSSSSPCKRRKLSGYSWVGDETSTSN
Take B2: the binding entry in test [3], in [4], in test [5] and in test [6] was “no binding” in each case.

B3: CycD1;1, split-ubiquitin Y2H fusion (protein, UniProt P42751 1-339)
chain: MRSYRFSDYLHMSVSFSNDMDLFCGEDSGVFSGESTVDFSSSEVDSWPGDSIACFIEDERHFVPGHDYLSRFQTRSLDASAREDSVAWILKVQAYYNFQPLTAYLAVNYMDRFLYARRLPETSGWPMQLLAVACLSLAAKMEEILVPSLFDFQVAGVKYLFEAKTIKRMELLVLSVLDWRLRSVTPFDFISFFAYKIDPSGTFLGFFISHATEIILSNIKEASFLEYWPSSIAAAAILCVANELPSLSSVVNPHESPETWCDGLSKEKIVRCYRLMKAMAIENNRLNTPKVIAKLRVSVRASSTLTRPSDESSFSSSSPCKRRKLSGYSWVGDETSTSN
Take B3: the binding entry in [7] and in [8] was “no binding” in each case.

B4: CycD3;1, split-ubiquitin Y2H fusion (protein, UniProt P42753 1-376)
chain: MAIRKEEESREEQSNSFLLDALYCEEEKWDDEGEEVEENSSLSSSSSPFVVLQQDLFWEDEDLVTLFSKEEEQGLSCLDDVYLSTDRKEAVGWILRVNAHYGFSTLAAVLAITYLDKFICSYSLQRDKPWMLQLVSVACLSLAAKVEETQVPLLLDFQVEETKYVFEAKTIQRMELLILSTLEWKMHLITPISFVDHIIRRLGLKNNAHWDFLNKCHRLLLSVISDSRFVGYLPSVVAAATMMRIIEQVDPFDPLSYQTNLLGVLNLTKEKVKTCYDLILQLPVDRIGLQIQIQSSKKRKSHDSSSSLNSPSCVIDANPFNSDESSNDSWSASSCNPPTSSSSPQQQPPLKKMRGAEENEKKKPILHLPWAIVATP
Consider B4, for which the binding result in test [7] and in test [8] was “no binding” in each case.

B5: CycD3;1_NtermGFP (protein, UniProt P42753 1-376)
chain: MAIRKEEESREEQSNSFLLDALYCEEEKWDDEGEEVEENSSLSSSSSPFVVLQQDLFWEDEDLVTLFSKEEEQGLSCLDDVYLSTDRKEAVGWILRVNAHYGFSTLAAVLAITYLDKFICSYSLQRDKPWMLQLVSVACLSLAAKVEETQVPLLLDFQVEETKYVFEAKTIQRMELLILSTLEWKMHLITPISFVDHIIRRLGLKNNAHWDFLNKCHRLLLSVISDSRFVGYLPSVVAAATMMRIIEQVDPFDPLSYQTNLLGVLNLTKEKVKTCYDLILQLPVDRIGLQIQIQSSKKRKSHDSSSSLNSPSCVIDANPFNSDESSNDSWSASSCNPPTSSSSPQQQPPLKKMRGAEENEKKKPILHLPWAIVATP
B5: the binding entry in test [1] and in test [2] was “no binding” each time.

B6: CycD3;1_GFP (protein, UniProt P42753 1-376)
chain: MAIRKEEESREEQSNSFLLDALYCEEEKWDDEGEEVEENSSLSSSSSPFVVLQQDLFWEDEDLVTLFSKEEEQGLSCLDDVYLSTDRKEAVGWILRVNAHYGFSTLAAVLAITYLDKFICSYSLQRDKPWMLQLVSVACLSLAAKVEETQVPLLLDFQVEETKYVFEAKTIQRMELLILSTLEWKMHLITPISFVDHIIRRLGLKNNAHWDFLNKCHRLLLSVISDSRFVGYLPSVVAAATMMRIIEQVDPFDPLSYQTNLLGVLNLTKEKVKTCYDLILQLPVDRIGLQIQIQSSKKRKSHDSSSSLNSPSCVIDANPFNSDESSNDSWSASSCNPPTSSSSPQQQPPLKKMRGAEENEKKKPILHLPWAIVATP
For the molecule B6, the binding result in test [9], in test [10], in [11] and in test [12] was “no binding” each time.

B7: CycD3;3, split-ubiquitin Y2H fusion (protein, UniProt Q9SN11 1-361)
chain: MALEEEEESQNAPFCVLDGLFCEEESEFHEQVDLCDESVEKFPFLNLGLSDHDMLWDDDELSTLISKQEPCLYDEILDDEFLVLCREKALDWIFKVKSHYGFNSLTALLAVNYFDRFITSRKFQTDKPWMSQLTALACLSLAAKVEEIRVPFLLDFQVEEARYVFEAKTIQRMELLVLSTLDWRMHPVTPISFFDHIIRRYSFKSHHQLEFLSRCESLLLSIIPDSRFLSFSPSVLATAIMVSVIRDLKMCDEAVYQSQLMTLLKVDSEKVNKCYELVLDHSPSKKRMMNWMQQPASPIGVFDASFSSDSSNESWVVSASASVSSSPSSEPLLKRRRVQEQQMRLSSINRMFFDVLSSSPR
Consider B7, for which the binding result in test [7] and in test [8] was “no binding” in each case.

B8: CycD3;3_NtermGFP (protein, UniProt Q9SN11 1-361)
chain: MALEEEEESQNAPFCVLDGLFCEEESEFHEQVDLCDESVEKFPFLNLGLSDHDMLWDDDELSTLISKQEPCLYDEILDDEFLVLCREKALDWIFKVKSHYGFNSLTALLAVNYFDRFITSRKFQTDKPWMSQLTALACLSLAAKVEEIRVPFLLDFQVEEARYVFEAKTIQRMELLVLSTLDWRMHPVTPISFFDHIIRRYSFKSHHQLEFLSRCESLLLSIIPDSRFLSFSPSVLATAIMVSVIRDLKMCDEAVYQSQLMTLLKVDSEKVNKCYELVLDHSPSKKRMMNWMQQPASPIGVFDASFSSDSSNESWVVSASASVSSSPSSEPLLKRRRVQEQQMRLSSINRMFFDVLSSSPR
As for B8, the binding result in [1] and in [2] was “no binding” throughout.
